Measured values taken from patent US20240209016A1, “FLUORESCENT NUCLEOSIDE PHOSPHATES” (STEALTH LABELS BIOTECH AB, priority 2021, published 2024).
Entries after “also recorded” stand apart in the source; their conditions may differ.

Tested on: Huh-7 cells
Assay: Cellular uptake and localisation by confocal fluorescence microscopy
Type: cell-based, human
Conditions: 2.5 μM, 20 h, 37° C., live cells
Description: Confocal Laser Scanning Fluorescence Microscopy: Images were captured using a Nikon eclipse Ti microscope with a Nikon C2plus scanner, two parallel Gallium arsenide phosphide (GaAsP) detectors, and an Apo 60x Oil μS DIC N2 objective. To excite the fluorescent nucleoside triphosphates the 405 nm laser line was used, and the emission was collected between 407-607 nm. To optimize the signal while avoiding photobleaching of the compounds a laser power of 2% and a detector gain of 4% was applied. For live cell imaging, Huh-7 cells were seeded in a four-compartment dish (CELLview Dishes, Greiner Bio-One) with glass bottom as described above. During imaging the dish was placed in a stage top incubation chamber (OKO lab) maintaining 37° C. and 5% CO2.
Time-lapse Imaging: To image the uptake of compounds 7 and 17 over time, the time-lapse setup of the NIS software was used. […]
Results: To explore the cellular uptake of compounds 7 and 17, they were added to Huh-7 cells in CCM and the uptake was monitored as function of time using a confocal fluorescence microscope (FIG. 4). Control cells, exposed to CCM alone, were imaged using the same microscopy settings and recorded as reference to probe for cellular autofluorescence levels. […]

Row | Substance | intracellular accumulation and localisation
1 | ((2R,3S,4R,5R)-5-(2,3,5,6-tetraazacyclopenta[de]tetracen-2(6H)-yl)-3,4-dihydroxytetrahydrofuran-2-yl)methyl hydrogen triphosphate [pATP] | accumulates in the cytosol, but not in the cell nucleus; also recorded: accumulates preferentially in the cytosol
2 | ((2R,3S,4R,5R)-5-(8-cyano-2,3,5,6-tetraazaaceanthrylen-2(6H)-yl)-3,4-dihydroxytetrahydrofuran-2-yl)methyl hydrogen triphosphate [2CNqATP] | seemingly evenly distributed across the cytosol and cell nuclei
